This is a noisy data set.
B1: human tRNA-Pro; a variant is named by its letters at N, in order (parent)
chain: GGCTCGTTGGTCTAGNGGTATGATTCTCGCTTAGGGTGCGAGAGGTCCCGGGTTCNNATCCCGGACGAGCCC

Variants of: B1
Test: tRNA Pol-III promoter activity, log2 (circRNA frequency / plasmid DNA frequency) (log2 ratio); higher = stronger promoter activity
Details: HEK293T; construct: no Pol-II promoter ((-)CMV library)

| Variant | tRNA Pol-III promoter activity (log2) |
| --- | --- |
| CAC G18A | 3.71 |
| GAA A14T T19A | -0.631 |
| AAA A58G | 1.36 |
| GAA T19G T59G | 2.01 |
| GAA A14G G17A A58T | 1.98 |
| CCA A58T | 3.18 |
| CAC T19C | 4.36 |
| TAG T8G | 3.13 |
| GAA T8G | -3.79 |
| TAG G9T | 2.31 |
| CTA G17C T19C T54A T59A | 5.16 |
| GAG T53A A58G | 2.81 |
| GCA T8G G17C | 4.03 |
| GGT G9T | 3.49 |
| AAA T19A | 0.25 |
| GAA T8C T19C A58C | 4.26 |
| GTA T19A T59A | 4.53 |
| TAA C55T | -0.151 |
| GAT T19G A20C | 5.49 |
| CAA G15C T53A A58T | 7.94 |
| GAA T8A G15A G18T | 6.75 |
| GAA T8C T59C | 3.21 |

| Variant | tRNA Pol-III promoter activity (log2) |
| --- | --- |
| GAT T8G G18A | 3.4 |
| GAT T53A T59A | 5.26 |
| GAA G15A T19A A58G | 4.93 |
| GTC | 1.09 |
| CAA T8C A14G | 2.77 |
| GAT A14T T59C | 3.14 |
| TAA C55A | 0.511 |
| GCA G15A | 0.35 |
| GTA T19G A58G | 1.84 |
| TAA T59A | 1.75 |
| GGG T53A | 3.22 |
| GAA G17T A20T T59A | 3.36 |
| GCA T8A A58T | 3.94 |
| GAA G15C T19A A58G | 3.62 |
| GAA A14C A20T T59A | 5.03 |
| CCA T19G | 3.78 |
| GAT A14C T53G | 3.44 |
| GTA | 2.38 |
| GGA G18T A58T | 0.855 |
| GAA T19C | -1.76 |
| TAA A14C T19G | 4.62 |
| TAC T8G A20C | 3.36 |

| Variant | tRNA Pol-III promoter activity (log2) |
| --- | --- |
| GTA A14G A58G | 1.94 |
| TAA G17A G18C T53C C55T | 3.93 |
| CTA G15A T59A | 4.36 |
| AAA G9T C55G | 3.04 |
| TAA G18T A20T | 3.16 |
| GAA T8A T19A A58G T59G | 4.03 |
| GAG G15A G18T | 3.21 |
| TAA G18C A58T | 3.25 |
| AAA A14G C55T A58G | 4.94 |
| CAT G15C | 3.38 |
| GAC G9T T59G | 6.25 |
| GAA A14G G18A T53C | 5.74 |
| GAA T19A T54A | 2.69 |
| GAC T59G | 1.8 |
| TAA T19G C55G | 2.02 |
| TGA G15A T54A T59A | 3.94 |
| GAA G15T T19G T59A | 3.72 |
| GAA A14T G15A | -0.335 |
| GAA A14C | 1.75 |
| GAG G9T A58T | 2.25 |
| GTA A20C | 1.11 |
| GAA A14T A20G | -0.192 |

| Variant | tRNA Pol-III promoter activity (log2) |
| --- | --- |
| GAT A14T G18A A20T | 6.03 |
| GAA T19A T53G T59C | 3.93 |
| GAC T19A | 0.625 |
| GAA T8A C55T | -1.73 |
| CAT A20T | 1.64 |
| GGA A14T | 0.0348 |
| AAA T8C A58C | 4.85 |
| GAA T19A A20T A58T | 5.07 |
| GAA A14C C55T | 1.47 |
| TTG A58T | 7.26 |
| GAA A14C G15T G18A T54A | 2.72 |
| GAG G15A T19G A58C | 5.51 |
| GAA A14G A58G T59C | 3.06 |
| GTA G9A C55G A58T | 3.34 |
| TAA T19A T53A | 3.46 |
| AGG | 4.22 |
| GAA A14G T19G A58T | 2.77 |
| TAA T8G T19G | 4.7 |
| TAA A14T A58T | 3.17 |

Variants of: B1
Test: tRNA 3' processing efficiency (processed reads / all reads, maximum-likelihood estimate) (fraction); higher = more efficient 3' processing
Details: HEK293T; construct: no Pol-II promoter ((-)CMV library)

| Variant | tRNA 3' processing efficiency |
| --- | --- |
| CAC G18A | 0.17 |
| GAA A14T T19A | 0.33 |
| AAA A58G | 0.18 |
| GAA T19G T59G | 0.18 |
| GAA A14G G17A A58T | 0.14 |
| CCA A58T | 0.45 |
| CAC T19C | 0.38 |
| TAG T8G | 0.25 |
| GAA T8G | 0.28 |
| TAG G9T | 0.6 |
| CTA G17C T19C T54A T59A | 0.71 |
| GAG T53A A58G | 0.5 |
| GCA T8G G17C | 0.4 |
| GGT G9T | 0.62 |
| AAA T19A | 0.2 |
| GAA T8C T19C A58C | 0.2 |
| GTA T19A T59A | 0.25 |
| TAA C55T | 0.36 |
| GAT T19G A20C | 0.27 |
| CAA G15C T53A A58T | 0.39 |
| GAA T8A G15A G18T | 0.57 |
| GAA T8C T59C | 0.44 |
| GAT T8G G18A | 0.67 |
| GAT T53A T59A | 0.3 |
| GAA G15A T19A A58G | 0.25 |

| Variant | tRNA 3' processing efficiency |
| --- | --- |
| GTC | 0.43 |
| CAA T8C A14G | 0.25 |
| GAT A14T T59C | 0.14 |
| TAA C55A | 0.4 |
| GCA G15A | 0.43 |
| GTA T19G A58G | 0.25 |
| TAA T59A | 0.21 |
| GGG T53A | 0.22 |
| GAA G17T A20T T59A | 0.25 |
| GCA T8A A58T | 0.57 |
| GAA G15C T19A A58G | 0.25 |
| GAA A14C A20T T59A | 0.5 |
| CCA T19G | 0.22 |
| GAT A14C T53G | 0.2 |
| GTA | 0.35 |
| GGA G18T A58T | 0.25 |
| GAA T19C | 0.59 |
| TAA A14C T19G | 0.5 |
| TAC T8G A20C | 0.25 |
| GTA A14G A58G | 0.4 |
| TAA G17A G18C T53C C55T | 0.25 |
| CTA G15A T59A | 0.25 |
| AAA G9T C55G | 0.5 |
| TAA G18T A20T | 0.43 |
| GAA T8A T19A A58G T59G | 0.8 |

| Variant | tRNA 3' processing efficiency |
| --- | --- |
| GAG G15A G18T | 0.5 |
| TAA G18C A58T | 0.2 |
| AAA A14G C55T A58G | 0.33 |
| CAT G15C | 0.31 |
| GAC G9T T59G | 0.4 |
| GAA A14G G18A T53C | 0.57 |
| GAA T19A T54A | 0.72 |
| GAC T59G | 0.23 |
| TAA T19G C55G | 0.25 |
| TGA G15A T54A T59A | 0.5 |
| GAA G15T T19G T59A | 0.5 |
| GAA A14T G15A | 0.4 |
| GAA A14C | 0.31 |
| GAG G9T A58T | 0.4 |
| GTA A20C | 0.29 |
| GAA A14T A20G | 0.26 |
| GAT A14T G18A A20T | 0.25 |
| GAA T19A T53G T59C | 0.25 |
| GAC T19A | 0.34 |
| GAA T8A C55T | 0.5 |
| CAT A20T | 0.33 |
| GGA A14T | 0.19 |
| AAA T8C A58C | 0.82 |
| GAA T19A A20T A58T | 0.31 |
| GAA A14C C55T | 0.62 |

Copied from the listing (seven entries):

| Variant | tRNA 3' processing efficiency |
| --- | --- |
| GAA A14T A20G | 0.26 |
| GAT A14T G18A A20T | 0.25 |
| GAA T19A T53G T59C | 0.25 |
| GAC T19A | 0.34 |
| GAA T8A C55T | 0.5 |
| CAT A20T | 0.33 |
| GGA A14T | 0.19 |

Additional results

| Variant | tRNA 3' processing efficiency |
| --- | --- |
| TTG A58T | 0.1 |
| GAA A14C G15T G18A T54A | 0.67 |
| GAG G15A T19G A58C | 0.33 |
| GAA A14G A58G T59C | 0.47 |
| GTA G9A C55G A58T | 0.17 |
| TAA T19A T53A | 0.25 |
| AGG | 0.54 |
| GAA A14G T19G A58T | 0.4 |
| TAA T8G T19G | 0.32 |
| TAA A14T A58T | 0.36 |
| AGC G15T A20T | 0.25 |
| ACA A14T A20T A58T | 0.5 |
| GAA T8G A14T G17C G18C A58G T59G | 0.2 |
| GCA A14G A20T A58G T59G | 0.73 |
| GGT A14C A20T | 0.43 |
| GTA T19G A20C A58G | 0.33 |
| GAA G15C T53A T59G | 0.2 |
| TAT G22A | 0.73 |
| GTA A20T G36A | 0.25 |
| GAA A14G T19G G22A A58T | 0.4 |
| AGA A20G T54A | 0.69 |
| AAA A14G A20T T59C | 0.2 |
| TGA G9T G18A T19A T53A | 0.17 |
| GAA A14G T53A A58G T59G | 0.11 |
| GGA G9A T19G A20C T53G | 0.25 |

Variants of: B1
Test: tRNA 5' processing efficiency (processed reads / all reads, maximum-likelihood estimate) (fraction); higher = more efficient 5' processing
Details: HEK293T; construct: CMV Pol-II promoter ((+)CMV library, decapped)

| Variant | tRNA 5' processing efficiency |
| --- | --- |
| GAA T8G | 0.24 |
| GTA | 0.33 |
| GAA T19C | 0.5 |
| GAA A14G G18A T53C | 0.25 |
| GAC T59G | 0.25 |
| GAA A14C | 0.21 |
| GAA T8A C55T | 0.4 |
| GGA A14T | 0.25 |

Reference: the supplement of paper PMC6445147
